From patent US20200407726A1
These are yes or no findings as the source states them, for the method shown. In cells and extracts the contact can be indirect. Some entries that bind do so weakly or less than the wild type. Where a sequence is shown, tags or fusion partners need not be part of it.

Sequences of proteins named here, by UniProt entry; tags and fusion partners are left off. A change or cut given only in a name is not applied to a line headed by its entry.
UniProt Q8C1W1: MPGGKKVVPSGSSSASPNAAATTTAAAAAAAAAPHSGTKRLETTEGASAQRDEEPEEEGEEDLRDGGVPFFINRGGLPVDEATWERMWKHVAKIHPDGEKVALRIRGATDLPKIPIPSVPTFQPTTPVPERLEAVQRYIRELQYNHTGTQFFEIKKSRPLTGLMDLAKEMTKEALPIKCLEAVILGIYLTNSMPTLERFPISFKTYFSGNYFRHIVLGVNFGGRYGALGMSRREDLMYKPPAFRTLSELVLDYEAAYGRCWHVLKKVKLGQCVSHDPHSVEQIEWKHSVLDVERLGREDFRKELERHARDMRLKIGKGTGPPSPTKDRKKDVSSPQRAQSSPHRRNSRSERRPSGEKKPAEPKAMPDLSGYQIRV
UniProt Q8C5G2: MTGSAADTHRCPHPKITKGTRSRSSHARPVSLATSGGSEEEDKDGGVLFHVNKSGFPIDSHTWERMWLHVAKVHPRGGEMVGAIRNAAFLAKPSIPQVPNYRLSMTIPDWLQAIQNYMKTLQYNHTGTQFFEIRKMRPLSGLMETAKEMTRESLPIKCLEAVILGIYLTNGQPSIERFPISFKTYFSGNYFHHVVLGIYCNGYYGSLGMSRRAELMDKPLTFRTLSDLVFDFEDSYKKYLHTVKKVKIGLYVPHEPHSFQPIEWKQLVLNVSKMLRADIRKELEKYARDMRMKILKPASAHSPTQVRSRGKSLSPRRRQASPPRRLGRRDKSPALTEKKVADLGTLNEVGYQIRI

Key:
[1] = target: Flag-(dead)VASH1-sfGFP-His (mouse vasohibin-1 C179A, catalytic dead) (mouse) (UniProt Q8C1W1); assay: cobalt resin co-purification, anti-His and anti-Flag Western blot
[2] = target: Flag-VASH1-sfGFP-His (mouse vasohibin-1) (mouse) (UniProt Q8C1W1); assay: as above
[3] = target: Flag-(dead)VASH2-sfGFP-His (mouse vasohibin-2 C158A, catalytic dead) (mouse) (UniProt Q8C5G2); assay: as above
[4] = target: Flag-VASH2-sfGFP-His (mouse vasohibin-2) (mouse) (UniProt Q8C5G2); assay: as above
[5] = target: Flag-(dead)VASH1-sfGFP-His (mouse vasohibin-1 C179A, catalytic dead) (mouse) (UniProt Q8C1W1); assay: co-expression in HEK293T cells, cobalt resin co-purification
[6] = target: Flag-VASH1-sfGFP-His (mouse vasohibin-1) (mouse) (UniProt Q8C1W1); assay: as above
[7] = target: Flag-(dead)VASH2-sfGFP-His (mouse vasohibin-2 C158A, catalytic dead) (mouse) (UniProt Q8C5G2); assay: as above
[8] = target: Flag-VASH2-sfGFP-His (mouse vasohibin-2) (mouse) (UniProt Q8C5G2); assay: as above

Measured: binding

B1: SVBP-Myc-Flag (mouse Small Vasohibin-Binding Protein with C-terminal Myc and Flag tags) (protein, UniProt Q99LQ4 1-66, looked up, not shown: small tags and cut ends)
chain: MDPPARKEKSKVKEPAFRVEKAKQKSAQQELKQRQRAEIYALNRVMTELEQQQFDEFCKQMQPPGE
binds: all assays above
